Results as given in PubChem BioAssay AID504834 (National Center for Advancing Translational Sciences (NCATS), 2011).
Several values for one entry are separate records, joined by “and”; a condition that tells them apart may be missing. Identical values can stand only once. Screen size: about 320,000 compounds; about 22,000 (6.9%) were called active. The shares of active, inactive and inconclusive entries below differ from those in the screen. The call rests on the fitted dose curve; in most records, active means well fitted inhibition curve with a large enough effect; inconclusive means small, poorly fitted or top-dose-only effect, or another doubt; inactive means no such curve, though single readings can be large or run the other way. Potencies beside an inconclusive call are fits to weak or partial responses and may not hold up.
Potency means the concentration at half of the fitted maximal effect.

Assay: Primary qHTS for delayed death inhibitors of the malarial parasite plastid, 96 hour incubation
Details: P. falciparum luciferase reporter growth; series mostly up to 28.7 µM
How it was run: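 Delayed-death screen, second-generation endpoint: infected erythrocytes, 2% hematocrit, 0.05% parasitemia final; 96 hours at 37 C, 5% CO2; luciferase detection reagent; luminescence decrease equals reduced growth.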
In the case of Cc1cc(N2C(=O)C3C4c5ccccc5C(c5ccccc54)C3C2=O)no1 (configuration not stated), the Potency is reported as inconclusive: 14.7 µM [inhibitor, single point].
For Cc1ccc(S(=O)(=O)N(C)C)cc1NC(=O)CSc1nc2ncc(Cl)cc2[nH]1, the Potency was inconclusive: 8.28 µM [inhibitor, partial curve, poor fit].
For Cc1ccc(-c2nnc3c(C(F)(F)F)nc4ccccc4n23)cc1, the Potency was inconclusive: 18.5 µM [inhibitor, single point].
For CCOC(=O)C1CCN(C(=O)CN2C(=O)C(CC)Oc3ccccc32)CC1 (configuration not stated), the Potency was inconclusive: 0.928 µM [inhibitor, partial curve].
For CCOc1ccc(OCCSc2ccc(S(=O)(=O)N3CCN(C)CC3)cn2)cc1, the Potency was active: 14.7 µM.
With O=C(NCCN1CCN(Cc2ccccc2)CC1)C1c2ccccc2C(=O)N2CCc3ccccc3C12 (configuration not stated) the Potency was “inactive”.
With CN1CCN(P(=O)(c2ccccc2)c2nc3ccccc3s2)CC1 (configuration not stated) the Potency was active: 13.1 µM.
In the case of COc1cccc(N2CCN(C(=O)CCC(=O)c3ccc(Cl)s3)CC2)c1, the Potency is reported as “inactive”.
In the case of COc1ccc(C)cc1NC(=O)CSc1nc(=O)n(CCCN2CCOCC2)c2c1CCCC2, the Potency is reported as inconclusive: 18.5 µM [inhibitor, single point].
In the case of O=C(NNC(=S)NC(=O)c1ccco1)c1ccc(F)cc1, the Potency is reported as inconclusive: 9.28 µM [inhibitor, single point].
With CCOC(CCNC(=O)CCC(=O)Nc1ccc2nc(N3CCN(C)CC3)cc(C)c2c1)OCC the Potency was inconclusive: 14.7 µM [inhibitor, single point].
With CCOc1ccccc1C(=O)Nc1cccc(-c2nnc(-c3ccccc3)o2)c1 the Potency was inconclusive: 2.94 µM [inhibitor, partial curve].
With COc1ccc(Cn2c(CCC(=O)N3CCN(c4ccccn4)CC3)nc3ncccc3c2=O)cc1 the Potency was inconclusive: 11.7 µM [inhibitor, single point].
With CC(C)CC(c1nnnn1C(C)C)N1CCN(c2cccc(Cl)c2)CC1 (configuration not stated) the Potency was inconclusive: 1.85 µM [inhibitor, partial curve, poor fit].
In the case of CN(C)N1C(N)=C(C#N)C(c2cccc3ccccc23)C2=C1CC(c1ccccc1)CC2=O (configuration not stated), the Potency is reported as inconclusive: 11.7 µM [inhibitor, single point].
In the case of CC1OC(OC2CCC3(C)C(CCC4C3CC(O)C3(C)C(C5=CC(=O)OC5)CCC43O)C2)CC(O)C1OC1CC(O)C(OC2CC(O)C(OC3OC(CO)C(O)C(O)C3O)C(C)O2)C(C)O1 (configuration not stated), the Potency is reported as inconclusive: 9.28 µM [inhibitor, partial curve, poor fit].
For CC(=O)NC(C)c1cc(F)c2cccnc2c1O (configuration not stated), the Potency was inconclusive: 13.1 µM [inhibitor, single point] and inconclusive: 16.5 µM [inhibitor, single point].
In the case of CC(C)c1ccc(O)c(NC(=S)NC(=O)c2ccc3c(c2)OCO3)c1, the Potency is reported as inconclusive: 18.5 µM [inhibitor, single point].
For COc1ccc(N2CC(=O)N(c3ccccc3)C2=S)cc1, the Potency was inconclusive: 18.5 µM [inhibitor, single point].
With COc1ccccc1NC(=O)Cn1cnc2sc(C)c(S(=O)(=O)N3CCCCC3)c2c1=O the Potency was active: 0.522 µM.
With O=C(Nc1nncs1)c1ccc(Br)c(S(=O)(=O)N2CCCC2)c1 the Potency was inconclusive: 7.38 µM [inhibitor, partial curve, poor fit].
For Cc1ccc(OCc2nc(C#N)c(NCc3ccco3)o2)cc1, the Potency was inconclusive: 1.04 µM [inhibitor, full curve, poor fit].
With CCCCN(CCCC)S(=O)(=O)c1ccc(NC(=O)c2ccc([N+](=O)[O-])cc2Cl)cc1 the Potency was “inactive”.
For Cc1cc(C)c(NC(=O)CSCc2c(C)noc2C)c(Cl)c1, the Potency was “inactive”.
In the case of COc1cccc(NC(=O)CN2CCN(CC(=O)Nc3ccc(F)cc3)CC2)c1, the Potency is reported as “inactive”.
For CCOC(=O)N1CCC2(CC1)CC(=O)c1cc(O)ccc1O2, the Potency was inconclusive: 14.7 µM [inhibitor, partial curve].
For COCCn1c(SCc2ccc(C(=O)OC)o2)nnc1-c1c[nH]c2ccccc12, the Potency was “inactive”.
With CN1CCN(C(=O)CCCOc2ccc(Cl)cc2Cl)CC1 the Potency was inconclusive: 13.1 µM [inhibitor, single point].
With COc1ccc(N2CCN(C(=O)c3ccccc3NC(=O)C3=C(C)OCCS3)CC2)cc1 the Potency was inconclusive: 18.5 µM [inhibitor, single point].
For COc1cc(/C=N/Nc2nc(C)cc(C)n2)ccc1OC(=O)c1ccco1, the Potency was inconclusive: 18.5 µM [inhibitor, single point].
In the case of C=CCN1C(=O)/C(=C2/Sc3ccc(OC)cc3N2C)SC1=NCc1ccccc1, the Potency is reported as inconclusive: 0.233 µM [inhibitor, full curve, poor fit].
In the case of COc1cc2nc(C3CCC3)nc(N3CCN(c4ccccc4OC)CC3)c2cc1OC, the Potency is reported as inconclusive: 18.5 µM [inhibitor, single point].
For O=C1/C(=C\c2ccc(O)cc2)SC(=S)N1Cc1ccccc1, the Potency was inconclusive: 0.0066 µM [inhibitor, full curve, poor fit].
In the case of COc1ccccc1C(=O)n1nc(C)cc1C, the Potency is reported as inconclusive: 4.15 µM [inhibitor, partial curve, poor fit].
In the case of O=C(OCC(=O)N1CCN(C(=O)c2ccco2)CC1)c1cccc(O)c1, the Potency is reported as “inactive”.
For CCOc1cc(C(=O)Nc2c(C)ccc3nsnc23)cc(OCC)c1OCC, the Potency was inconclusive: 16.5 µM [inhibitor, single point].
In the case of Cc1noc(C)c1S(=O)(=O)N1CCC(C(=O)N2CCN(c3ccc(F)cc3)CC2)CC1, the Potency is reported as inconclusive: 18.5 µM [inhibitor, single point].
For O=C(COc1ccc([N+](=O)[O-])cc1)NC(C(=O)O)C(O)c1cccc([N+](=O)[O-])c1 (configuration not stated), the Potency was “inactive”.
With O=C(Nc1nccs1)c1cc(S(=O)(=O)N2CCCCC2)ccc1Cl the Potency was inconclusive: 7.38 µM [inhibitor, single point].
With COc1cc(OC)cc(C(=O)OCCCOC(=O)c2cc(OC)cc(OC)c2)c1 the Potency was “inactive”.
With COCCN(C(=O)COC(=O)c1cnc(C)cn1)c1c(N)n(Cc2ccccc2)c(=O)[nH]c1=O the Potency was “inactive”.
With O=C(CCc1ccccc1)NCCS(=O)(=O)N1CCN(c2ccccc2)CC1 the Potency was “inactive”.
In the case of COc1cccc(-c2ncc3ccccc3c2COC(=O)CCC(=O)O)c1, the Potency is reported as inconclusive: 2.62 µM [inhibitor, single point].
With Cc1ccc(S(=O)(=O)c2nnn(-c3cccc(F)c3)c2N)cc1 the Potency was “inactive”.
For O=[N+]([O-])c1cccc(-c2n[nH]c(=S)n2Cc2ccccc2)c1, the Potency was inconclusive: 18.5 µM [inhibitor, single point].
With Cc1ccc(SCCNC(=O)CN2C(=O)c3ccccc3S2(=O)=O)cc1 the Potency was inconclusive: 18.5 µM [inhibitor, single point].
For O=C(CN1CCN(c2ccccc2)CC1)N1CCc2[nH]c3ccccc3c2C1, the Potency was inconclusive: 14.7 µM [inhibitor, single point].
In the case of COc1ccccc1C(=O)OCC(=O)Nc1cccc(S(=O)(=O)N2CCCC2)c1, the Potency is reported as “inactive”.
For O=C(N/C(=C/c1ccc(F)cc1)C(=O)N1CCOCC1)c1ccccc1, the Potency was “inactive”.
For CC1=CC(=O)C=C(C)C1=NOc1ccc([N+](=O)[O-])cc1, the Potency was “inactive”.
In the case of COc1ccc(CN(C)C(=O)CCN=C2NS(=O)(=O)c3ccccc32)c(OC)c1, the Potency is reported as “inactive”.
With Fc1ccc(CN2CCN(c3ncccn3)CC2)cc1 the Potency was inconclusive: 6.57 µM [inhibitor, partial curve, poor fit].
With Cc1ccc(N(CC(=O)NC2CCCC2)C(=O)c2nsc(Cl)c2Cl)cc1 the Potency was inconclusive: 8.28 µM [inhibitor, single point].
In the case of Cc1ccn2cc(C(=O)Nc3nnc(C)s3)nc2c1, the Potency is reported as active: 4.15 µM.
In the case of Cc1ccnc(NC(=O)c2cnc(Cl)c(Cl)c2)c1, the Potency is reported as “inactive”.
In the case of c1ccc(NC2=NCCN2CC2CCCC2)cc1, the Potency is reported as inconclusive: 18.5 µM [inhibitor, single point].
In the case of CC(=O)N1CCC2(CC1)CC(=O)c1cc(OCC(=O)N3CCC4(CC3)OCCO4)ccc1O2, the Potency is reported as inconclusive: 11.7 µM [inhibitor, partial curve, poor fit].
With COc1ccc2cc(CCNC(=O)c3ccco3)c(=O)[nH]c2c1 the Potency was inconclusive: 6.57 µM [inhibitor, single point].
In the case of CC1=CC(C)(C)Nc2ccc(OS(=O)(=O)c3ccc(C)cc3)cc21, the Potency is reported as inconclusive: 0.233 µM [inhibitor, partial curve, poor fit].
In the case of CSc1nc(N)nc(SCC(=O)C(C)(C)C)c1C#N, the Potency is reported as inconclusive: 18.5 µM [inhibitor, single point].
In the case of S=c1[nH]c(-c2ccc(Br)cc2)cn1CCc1ccccc1, the Potency is reported as active: 13.1 µM.
In the case of CCOC(=O)C1C(=O)N(C)C2(C)CC1c1cc(OC)ccc1O2 (configuration not stated), the Potency is reported as inconclusive: 9.28 µM [inhibitor, partial curve, poor fit].
With Cn1ncc(Br)c1C(=O)NC1CCCCCC1 the Potency was inconclusive: 18.5 µM [inhibitor, single point].
For CCc1ccc(NC(=O)CSc2nnnn2-c2cccnc2)cc1, the Potency was inconclusive: 7.38 µM [inhibitor, partial curve, poor fit].
With COc1ccc(C2=NN(C)C(=NCc3ccccc3)SC2)cc1 the Potency was “inactive”.
With COc1ccccc1NC(=O)c1oc2ccccc2c1NC(=O)C1CC1 the Potency was active: 14.7 µM.
In the case of CCNc1ccc(S(=O)(=O)N(C)C)cc1NCC(=O)Nc1c(F)cccc1F, the Potency is reported as inconclusive: 9.28 µM [inhibitor, single point].
